# Paper PMC5833700, “MIF inhibits the formation and toxicity of misfolded SOD1 amyloid aggregates: implications for familial ALS” (Cell Death & Disease, 2018)
# Sequences of proteins named here, by UniProt entry; tags and fusion partners are left off. A change or cut given only in a name is not applied to a line headed by its entry. A line that says so, or that is headed by a name, gives the form on record, which may keep a tag or linker.
# UniProt P00441: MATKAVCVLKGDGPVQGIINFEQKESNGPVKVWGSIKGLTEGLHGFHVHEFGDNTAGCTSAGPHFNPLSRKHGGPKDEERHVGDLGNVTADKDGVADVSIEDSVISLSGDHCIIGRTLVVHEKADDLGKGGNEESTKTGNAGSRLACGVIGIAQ
# recombinant hSOD1^G85R (P00441, form named): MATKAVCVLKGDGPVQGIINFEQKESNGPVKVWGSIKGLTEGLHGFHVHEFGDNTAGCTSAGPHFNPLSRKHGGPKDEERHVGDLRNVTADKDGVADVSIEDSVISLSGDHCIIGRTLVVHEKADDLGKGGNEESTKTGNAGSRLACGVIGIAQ
# Results are given in words; binding and its absence hold for the method and conditions named.
# B1: macrophage migration inhibitory factor, wild type (MIF^WT) (natural protein, human, UniProt P14174 1-115, looked up)
# chain: MPMFIVNTNVPRASVPDGFLSELTQQLAQATGKPPQYIAVHVVPDQLMAFGGSSEPCALCSLHSIGKIGGAQNRSYSKLLCGLLAERLRISPDRVYINYYDMNAANVGWNNSTFA
# notes: No tag is mentioned; Surmise: the initiator methionine is removed in E. coli, since tautomerase activity was measured; also called recombinant MIF; hMIF; source: E. coli BL21 (DE3), purified (Capto Q anion exchange, Capto S cation exchange)
# Biological target: recombinant hSOD1^G85R (human) (UniProt P00441)
# Test: co-IP; recombinant hSOD1^G85R (4 µg) incubated with or without recombinant MIF (2 µg); misfolded SOD1 immunoprecipitated overnight with A5C3 antibody crosslinked to Dynabeads protein G; IP buffer 50 mM Tris-HCl pH 7.4, 150 mM NaCl, 1 mM EDTA, 0.5% NP-40; immunoblot; both purified
binder,measurement,value
B1,binding,no binding
